Values quoted from earlier work as cited in PMC11223151 (ACS Omega, 2024).

Tested on: human breast cancer cell line (MCF-7)
Settings: cited from earlier work

Structure (SMILES): CC/C(=C(\c1ccccc1)c1ccc(OCCN(C)C)cc1)c1ccccc1 [tamoxifen]
- IC50 for MCF-7 cells: 8 µg/mL
